Each number is a percent effect as filed.
How 0% and 100% were set is not recorded. Most values in the screen are low, and negative values occur.
Compounds were drawn at random from those tested, without regard to their results.
Two or more numbers in one place are separate tests of the same structure; such repeats can differ widely.

Mtb cholesterol medium: 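Whole-cell growth test on Mycobacterium tuberculosis, read after 4 days in a medium based on cholesterol and the lipid DPPC; the read-out is not stated. Compounds at 50 µM. The record gives no direction; compounds that gave an IC50 in retests scored well above the rest, so higher reads as more growth inhibition. About 69,000 compounds were tested under these conditions; 0.54% (about 370) showed 50% or more at least once.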
Mtb glucose medium: 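Whole-cell growth test on Mycobacterium tuberculosis, read after 3 days in glucose-containing 7H9 medium; the read-out is not stated. Compounds at 50 µM. Higher reads as more growth inhibition (inferred: compounds with an IC50 in retests scored well above the rest). Size under these conditions: about 69,000 compounds, about 760 of them at 50% or above in at least one test.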

SMILES	Mtb cholesterol medium	Mtb glucose medium
COCCC(=O)N1CCC2(COCc3cnc(N4CCOCC4)nc32)C1 (stereo not shown)	0.7165	-21.99
Cc1cccnc1[C@H](C)NC(=O)c1cccc(CC2CCNCC2)c1	-5.347 & 6.065	7.598
Cc1ccc(NC(=O)c2nc3c(s2)CCCN3C(=O)C2CC2)cn1.O=C(O)C(F)(F)F	22.61	6.726 & 14.07
O=C(O)C(F)(F)F.O=C(O)C(F)(F)F.c1ccc(CN2CCC3(CC2)CC(Oc2cccnc2)C3)nc1	5.204	-10.06
CCn1nc(C)c(CNC(=O)c2cn(CC3CCCO3)nn2)c1C (stereo not shown)	8.23	4.968
[H][C@@]12C[C@@H](C)O[C@]1([H])CN(C(=O)C1=CCCC1)C2	-11.65	-3.291
Cc1noc(C)c1CN1CC2(CCN(C(=O)c3cscn3)CC2)CC1=O	-18.7	-8.356
C(=C\c1ccccc1)/CNCC1CCc2nncn2C1 (stereo not shown)	-24.41	-25.44 & -4.091
Cc1cccc(C(C(=O)NCc2cc(C)[nH]n2)N(C)C)c1 (stereo not shown)	-22.72	-0.5104
Cl.Fc1cccc(F)c1Cn1c(C2CCCNC2)cc2cccnc21 (stereo not shown)	22.5 & 4.101	4.493
OCC(CO)N1CCCC(Cc2cnc(Nc3ccccn3)cn2)C1 (stereo not shown)	6.097 & -1.218	-36.35
COc1ccccc1C1(CNCc2ccc(C#N)cc2)CCOCC1	2.655	4.331 & -9.289
Cc1ccc(OC2(C(=O)O)CCN(C/C=C/c3ccco3)CC2)cn1	8.996	2.724 & 10.54
[H][C@@]12CCN(CC3CCOCC3)C[C@]1([H])OCCN(c1ccccc1)C2=O	-2.621	-4.423 & 8.961
Cc1cc(NC(C)c2n[nH]c(C)n2)n2nc(C)c(C)c2n1 (stereo not shown)	-4.028	-4.137
Cn1cc(CN2CCC(c3ncc(Cl)cc3S(C)(=O)=O)CC2)cn1	-11.78 & -13.96	-8.807
CCOC1COC2(CCN(S(=O)(=O)c3ccc(F)cc3)CC2)C1 (stereo not shown)	-15.59	12.75
CCCNC(=O)C(C)N1CCC(C(=O)Nc2cnn(CC)c2)CC1 (stereo not shown)	-0.4401	-9.987
COCC(Nc1ncnc2sc(C)c(C)c12)c1ccnn1C (stereo not shown)	6.121	-5.34
Cn1cc(CN2CCCC23CCN(C(=O)c2ccccn2)CC3)cn1.O=C(O)C(F)(F)F	-14.95	14.62
CC(C)N1CCCC2(CCN(c3nccc(C(F)(F)F)n3)C2)C1=O (stereo not shown)	-13.61	5.558
Cc1ccccc1-n1cc(-c2ccnc(NC(CO)C(C)C)n2)cn1 (stereo not shown)	3.492	-1.194
O=C(COc1ccc2c(c1)OCO2)NCc1ccco1	27.56	35.99
CC(C)Cc1noc(CN2CCN(S(C)(=O)=O)CC2)n1	-1.514	17.03
Cc1ccccc1C(CC(=O)NCc1n[nH]c(N)n1)c1ccccc1 (stereo not shown)	-15.48	-12.84
CCc1cnc2c(c1Nc1ccc3c(c1)OCO3)c(=O)n(C)c(=O)n2C	5.519	26.14
Cc1nc(Oc2ccccc2Cl)sc1C(=O)O	14.59	10.8
Cc1cnn(C2CCCN(C(=O)c3ccnc(-n4cncn4)c3)C2)c1 (stereo not shown)	-8.901	9.469
Cc1nn(-c2ccc(F)cc2)c2[nH]nc(N)c12	-15.2	-8.69 & -5.894
O=C(CN1CCCC1=O)NCc1cccnc1Oc1ccc(F)c(F)c1	-6.754	-20.56
Cn1nc(C(=O)NC2CCCC2)cc1NC(=O)C1CC1	-15.6	0.1514
Cc1cccc(N2CCC(NC(C)c3cccs3)CC2)n1 (stereo not shown)	19.93	-18.05
CN(Cc1ccco1)C(=O)CN1CCCC1Cn1cccn1 (stereo not shown)	-14.1	-20.76
O=C1OCCN1Cc1ncnn1Cc1c(F)cccc1Cl	11.14	22.73
CC1CCN(C(=O)C2CCCN(C(=O)Nc3ccccn3)C2)CC1 (stereo not shown)	-9.123	1.556
CC(C)(C)C(=O)Cn1nc(C2CC2)cc(C(F)(F)F)c1=O	16.12	10.99
CC(C)N(C)CC(=O)N(C)Cc1nc(C(F)(F)F)cs1	3.233	9.119
CS(=O)(=O)NCCC(=O)N1CCC(Cc2ccc(CO)cc2)C1 (stereo not shown)	-15.71	7.827
Cc1cnn(-c2ccc(S(=O)(=O)N(C)CC(F)F)cc2F)c1	14.96	20.97
COc1cccc(CC(=O)N2CCc3nc(C(N)=O)sc3CC2)c1	4.659	-8.285 & -1.548
CC(C)C(C)NC(=O)Nc1cccn(C)c1=O (stereo not shown)	-11.69	-7.193 & -27.89
CC(c1ccc(F)cc1F)N1CCN(CCC(=O)O)CC1.Cl (stereo not shown)	3.419	-9.272
CCCN1CCC(NCc2cccc(CN3CCOC(C)C3)c2)CC1 (stereo not shown)	-20.02	-56 & -0.1029
Cc1cc(Cn2cc(C#N)c(=O)c3ccccc32)on1	-21.84	-81.47 & -16.69
COC(=O)c1ccc(OC)c(OC23CCCN(CC2)C3)c1 (stereo not shown)	-1.074	21.3
CS(=O)(=O)NCc1cnc2n1CCN(Cc1ccccn1)CC2.O=C(O)C(F)(F)F	10.43	16.19
N[C@H]1CN(C(=O)c2ccc3[nH]c(=O)c(=O)[nH]c3c2)C[C@@H]1c1ccccc1	-11.69	-24.78
Cc1nc(CC2CCN(C(=O)C(c3ccccc3C)N(C)C)CC2)no1 (stereo not shown)	33.12	19.73
COC(C)(C)C(=O)N[C@H]1CN(c2ncccc2C(N)=O)C[C@@H]1C(C)C	10.98	-2.187 & -1.233
CC(=O)N1CCC(C(=O)NC2CCc3nccn3C2)CC1 (stereo not shown)	-11.87	0.675
Cc1cc(F)ccc1-c1ccccc1CC1CNCCNC1=O.Cl (stereo not shown)	3.146 & -22.66	-12.8
CC(Cn1cccn1)NCc1csc2c1CCCC2 (stereo not shown)	-3.812	-28.51
c1cc(C2CCCN2Cc2nnnn2C2CC2)cs1 (stereo not shown)	-11.89	-0.2946 & 2.79
Cc1nn(C)c(N2CCOCC2)c1CNCc1ccnc(N(C)C)c1	-17.14	-4.439
Cc1cc(C)n(-c2cncc(NCCNS(C)(=O)=O)n2)n1	-3.68	-8.748
O=c1n(CC2COCCO2)nc(CC2CCNCC2)n1-c1ccccc1 (stereo not shown)	3.5	6.422
COc1ccc(C(=O)N2C[C@@H](C)[C@@](C)(O)C2)cc1N1CCOCC1	10.8	-17.05
c1ccc(O[C@H]2COCCN(Cc3c[nH]c4ccccc34)C2)cc1	-10.41	-9.216 & -2.075
Cc1cccc(C(=O)N2CCCn3c(CN4CCCCC4)nnc3C2)c1	5.027 & 2.936	-6.89
CN(Cc1ncc[nH]1)C(=O)C(C)(C)NC(=O)c1cccs1	-27.16	-12.93
CN(C)CCNC(=O)c1ccc2ccc(N(C)CC3CC3)n2c1	10.28 & 8.53	14.35
O=C(Cc1c(F)cccc1Cl)NC1CCCCNC1=O (stereo not shown)	-13.49	-16.04
Cc1cnc2n(c1=O)CC(C(=O)NC1CC1)CS2 (stereo not shown)	-17.03	-0.5194 & -3.6
COc1ccc(N2CCN(C(=O)CCc3n[nH]c(C)n3)CC2=O)cc1	-45.52	-28.86
O=C(NCc1cccnc1)c1cn(CCc2ccccc2)nn1	-9.182 & -12.76	-21.88
O=C(O)C(F)(F)F.[H][C@@]12CN(CC)C[C@]1([H])[C@@H](OC)CCN2S(=O)(=O)c1ccccc1	-19.87	-22.93
CCN(CC(O)c1ccc(C)cc1)C(=O)NC(C)C (stereo not shown)	-13.11	-10.19
CC(C)N(C)S(=O)(=O)c1ccc2c(c1)CCN(C(=O)c1cscn1)C2	-14.99	2.845
O=C(c1cscn1)N1CCC2(CCN(Cc3nccs3)C2)CC1	-15	18.7
CCCc1nc(CN(CC)C(=O)c2ccc3[nH]cnc3c2)no1	-8.325	8.65
C/C(=C\c1ccco1)CN(C)C(C)Cc1ccccn1 (stereo not shown)	-36.94	-57.61
NCC(=O)N1CCC2(CC1)CN(C(=O)Cc1ccc(Cl)cc1)CCO2	-16.54	15.97
COc1ccc(Cn2c(C3CCNCC3)cc3cccnc32)cc1.Cl	13.29 & 21.62	36.93
COc1ccc(C(O)CNC(=O)Cn2ccc(=O)n(C)c2=O)cc1 (stereo not shown)	-26.13	-2.402 & -56.31
O=C(Cn1cc(C2CC2)nn1)N(Cc1ccco1)CC1CCCO1 (stereo not shown)	-13.26	-21.08
CCN(CCNC(=O)c1ccccc1OCCOC)C1CC1	-46.39	-82
COc1ccnc(N2CCN(C(=O)CCc3nccs3)CC2)n1	5.975	-26.69
Cn1cnnc1C1CCN(C(=O)CCCOc2ccccc2)CC1	-11.07	17.74
CCn1cc(CN2CCCN(C(=O)c3sccc3C#N)CC2)cn1	20.37	-0.8837
[H][C@@]12CCN(c3cnccn3)C[C@@]1(C(=O)O)CCCN2Cc1ccncc1	-27.69	-11.26

The last 5 entries again:

CCN(CCNC(=O)c1ccccc1OCCOC)C1CC1 read Mtb cholesterol medium: -46.39%; Mtb glucose medium: -82%.
COc1ccnc(N2CCN(C(=O)CCc3nccs3)CC2)n1 read Mtb cholesterol medium: 5.975%; Mtb glucose medium: -26.69%.
Cn1cnnc1C1CCN(C(=O)CCCOc2ccccc2)CC1 read Mtb cholesterol medium: -11.07%; Mtb glucose medium: 17.74%.
CCn1cc(CN2CCCN(C(=O)c3sccc3C#N)CC2)cn1 read Mtb cholesterol medium: 20.37%; Mtb glucose medium: -0.8837%.
[H][C@@]12CCN(c3cnccn3)C[C@@]1(C(=O)O)CCCN2Cc1ccncc1 read Mtb cholesterol medium: -27.69%; Mtb glucose medium: -11.26%.

Measurements from “University of Dundee, Small-Polar-MMV Screening Library” (2021), ChEMBL document CHEMBL3988442.